Article PMC9204951
Results are given in words; binding and its absence hold for the method and conditions named. In cells and extracts the contact can be indirect. A yes stands for co-enrichment or nearness to the bait. Other partners may have been found. No binding means not detected with the bait.

By UniProt entry, the sequences of proteins in these tests, tags left out.
UniProt P05627: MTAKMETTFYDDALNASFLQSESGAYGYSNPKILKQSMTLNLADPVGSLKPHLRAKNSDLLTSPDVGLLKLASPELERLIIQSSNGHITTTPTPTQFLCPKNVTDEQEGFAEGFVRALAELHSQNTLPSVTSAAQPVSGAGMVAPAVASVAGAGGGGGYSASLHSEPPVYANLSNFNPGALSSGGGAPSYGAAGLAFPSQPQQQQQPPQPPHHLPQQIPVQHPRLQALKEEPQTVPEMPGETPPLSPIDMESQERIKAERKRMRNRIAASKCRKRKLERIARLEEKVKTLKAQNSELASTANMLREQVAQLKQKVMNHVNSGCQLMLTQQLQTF
UniProt Q62280: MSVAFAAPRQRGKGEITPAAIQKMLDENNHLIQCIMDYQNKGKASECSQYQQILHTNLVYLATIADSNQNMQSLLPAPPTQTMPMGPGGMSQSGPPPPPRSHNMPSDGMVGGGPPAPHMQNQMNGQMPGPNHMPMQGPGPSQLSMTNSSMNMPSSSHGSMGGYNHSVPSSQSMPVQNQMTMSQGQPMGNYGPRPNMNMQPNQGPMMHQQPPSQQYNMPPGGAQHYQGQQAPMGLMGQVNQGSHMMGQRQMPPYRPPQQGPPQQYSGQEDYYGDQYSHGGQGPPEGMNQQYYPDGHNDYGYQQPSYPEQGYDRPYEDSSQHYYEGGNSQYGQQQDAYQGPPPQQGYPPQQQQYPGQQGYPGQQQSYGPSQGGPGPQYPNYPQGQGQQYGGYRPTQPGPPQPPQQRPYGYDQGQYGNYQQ
UniProt P28033: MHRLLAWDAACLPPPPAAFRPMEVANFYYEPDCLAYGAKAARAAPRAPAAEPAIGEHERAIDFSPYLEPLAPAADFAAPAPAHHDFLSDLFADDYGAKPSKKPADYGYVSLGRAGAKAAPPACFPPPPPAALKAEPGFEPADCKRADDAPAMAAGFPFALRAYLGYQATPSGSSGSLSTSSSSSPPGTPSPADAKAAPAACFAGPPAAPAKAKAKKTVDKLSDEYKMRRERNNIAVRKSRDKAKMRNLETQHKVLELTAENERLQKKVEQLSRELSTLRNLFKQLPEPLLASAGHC

Assays:
JUN-Flag = JUN-Flag (UniProt P05627); test: affinity purification with mass spectrometry; IP with Flag antibody from JUN-Flag TetON mESCs after Dox for 0, 8 and 24 h; 8 h or 24 h compared with 0 h; label-free quantification, triplicate, thresholds P = 0.01 and fold change 2
[1] = target: SS18 (mouse (endogenous in mESCs)) (UniProt Q62280); test: affinity purification with mass spectrometry; endogenous SS18 IP (SS18 antibody against matched IgG) from 1 mg whole cell extract of Jun-Flag TetON mESCs after Dox for 0, 8 and 24 h; lysis buffer 50 mM Tris pH 8.0, 150 mM NaCl, 10% glycerol, 0.5% NP40; overnight 4 °C, Protein A/G magnetic beads, on-bead digestion; label-free quantification, triplicate

Molecule | binding (JUN-Flag) | binding [1]
SS18 (from UniProt Q62280 1-418) | no binding | –
CEBPB (from UniProt P28033 1-296) | binds | binds
JUN-Flag (from UniProt P05627 1-334) | – | no binding
ZSAN4F (protein, UniProt Q3URS2 1-506) MASQQAPAKDLQTNNLEFTPTDSSGVQWAEDISNSPSAQLNFSPSNNGCWATQELQSLWKMFNSWLQPEKQTKEQMISQLVLEQFLLTGHCKDKYALTEKWKASGSDMRRFMESLTDECLKPPVMVHVSMQGQEALFSENMPLKEVIKLLKQQQSATRPTPDNEQMPVDTTQDRLLATGQENSENECNNSCNATEANVGESCSGNEMDSLLIMQKEQHPEHEEGNVVCQFPHGARRASQGTPSHHVDFPSAPTTADVPMEEQPKDLSRENISEDKNNCYNTSRNAATQVYSGDNIPRNKSDSLFINKRIYHPEPEVGDIPYGVPQDSTRASQGTSTCLQESLGECFSEKDPREVPGLQSRQEQLISDPVLLGKNHEANLPCESHQKRFCRDAKLYKCEECSRMFKHARSLSSHQRTHLNKKSELLCVTCQKMFKRVSDRRTHEIIHMPEKPFKCSTCEKSFSHKTNLKSHEMIHTGEMPYVCSLCSRRFRQSSTYHRHLRNYHRSD | binds | binds
NANOG (protein, UniProt Q80Z64 1-305) MSVGLPGPHSLPSSEEASNSGNASSMPAVFHPENYSCLQGSATEMLCTEAASPRPSSEDLPLQGSPDSSTSPKQKLSSPEADKGPEEEENKVLARKQKMRTVFSQAQLCALKDRFQKQKYLSLQQMQELSSILNLSYKQVKTWFQNQRMKCKRWQKNQWLKTSNGLIQKGSAPVEYPSIHCSYPQGYLVNASGSLSMWGSQTWTNPTWSSQTWTNPTWNNQTWTNPTWSSQAWTAQSWNGQPWNAAPLHNFGEDFLQPYVQLQQNFSASDLEVNLEATRESHAHFSTPQALELFLNYSVTPPGEI | – | binds
CEBPG (protein, UniProt P53568 1-150) MSKLSQPATTPGVNGISVIHTQAHASGLQQVPQLVPAGPGGGGKAVPPSKQSKKSSPMDRNSDEYRQRRERNNMAVKKSRLKSKQKAQDTLQRVNQLKEENERLEAKIKLLTKELSVLKDLFLEHAHSLADNVQPISTETTATNSDNPGQ | binds | binds
